Source: PubChem BioAssay AID504444 (National Center for Advancing Translational Sciences (NCATS), 2011)
Among all 360,000 compounds or so, about 7,500 (2.1%) were called active. Inconclusive results, whose numbers are uncertain, are shown with a selection of clear calls. Calls follow the shape of the dose curve; as a rule, active = well fitted inhibition curve with a large enough effect; inconclusive = small, poorly fitted or top-dose-only effect, or effect the other way; inactive = flat fitted curve, though single readings scatter. Potencies beside an inconclusive call are fits to weak or partial responses and may not hold up.
% is scaled to controls: 0 for no effect and ±100 for the full control effect; potency is read from the fitted curve at half-maximal effect.

Assay: Nrf2 qHTS screen for inhibitors; also: nearly all actives have a fitted effect of over 60% in size
Settings: A549 ARE-Fluc reporter, luciferase luminescence, 18-24 h; activity change, negative = inhibition: at 46 µM (top of the series)
Procedure, shortened: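 A549 ARE_Fluc cells (5000/well, 5% FBS OPTI-MEM) pre-incubated 2 h, then treated with compounds 18-24 h at 37C/5% CO2 in concentration-response. CellTiter-Fluor viability read first; BugLite luciferase luminescence after 15 min at room temperature gives Nrf2 activity.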
In the case of `Cc1ccccc1CNC(=O)C(C)n1nc(C)n2c(cc3occc32)c1=O` (configuration not stated), the “activity change, negative = inhibition” value is reported as inactive: 6.62%.
In the case of `CN1C(=O)/C(=N\OC(=O)c2ccccc2Cl)c2ccccc21`, the Potency is reported as inconclusive: 29.1 µM [falling, single point].
In the case of `O=C(/C=C/c1ccc(Br)cc1)N1CCN(c2cccc(C(F)(F)F)c2)CC1`, the Potency is reported as inconclusive: 29.1 µM [falling, single point].
In the case of `O=[N+]([O-])c1ccc2nc(-c3ccc(Cl)cc3)[nH]c2c1`, the Potency is reported as inconclusive: 32.6 µM [falling, single point].
For `CC(=O)c1sc(NC(=O)c2cnc(Cl)c(Cl)c2)nc1C`, the Potency was inconclusive: 7.31 µM [activator, partial curve].
For `Cc1ccc(C(=O)O)cc1NC(=O)c1ccc(Cn2nc(C)c(Cl)c2C)o1`, the Potency was inconclusive: 0.731 µM [activator, full curve].
With `C/C=C/c1ccc(OCC(=O)Nc2cc(OC)c(OC)c(OC)c2)c(OC)c1` the Potency was inconclusive: 29.1 µM [falling, single point].
In the case of `CC(C)(C)c1ccc(Oc2ccc(N)cc2)cc1`, the Potency is reported as active: 4.11 µM.
With `COc1cccc(Cn2cccc(NC(=O)NCc3ccccc3)c2=O)c1` the Potency was inconclusive: 18.4 µM [falling, single point].
For `COc1ccc(CC(=O)Nc2nc3c(s2)CC(C(C)(C)C)CC3)cc1` (configuration not stated), the Potency was inconclusive: 29.1 µM [falling, single point].
In the case of `CCOC(=O)c1[nH]c2c(c1-c1ccccc1)C(=O)CC(c1ccc(OCC)cc1)C2` (configuration not stated), the “activity change, negative = inhibition” value is reported as inactive: -7.74%.
For `O=c1oc2ccc(Br)cc2cc1S(=O)(=O)c1ccc(F)cc1`, the Potency was inconclusive: 2.91 µM [falling, full curve, poor fit].
For `O=C1c2ccc(-c3nc4ccccc4o3)cc2C(=O)N1Cc1ccccc1`, the “activity change, negative = inhibition” value was inactive: 1.18%.
In the case of `CCOc1ccc(/C=N/OCC(=O)NCc2ccco2)cc1`, the Potency is reported as inconclusive: 18.4 µM [activator, partial curve, poor fit].
With `O=C1CC(c2nc3ccccc3n2CCCCOc2ccccc2)CN1c1ccccc1Cl` (configuration not stated) the Potency was inconclusive: 29.1 µM [falling, single point].
In the case of `CCCCn1c(=O)[nH]c(=O)c2c1nc(-c1ccccn1)n2CC`, the Potency is reported as inconclusive: 8.2 µM [falling, partial curve].
In the case of `O=C(N/N=C/c1cccc([N+](=O)[O-])c1)c1c[nH]c2ccccc12`, the Potency is reported as inconclusive: 2.31 µM [activator, full curve].
With `COc1ccc(C2=CN(Cc3ccccc3)C(c3ccccc3)CC2=O)cc1` (configuration not stated) the Potency was inconclusive: 9.2 µM [activator, partial curve].
In the case of `CC(C)c1nnc(NC(=O)COc2ccc3c(c2)OCO3)s1`, the Potency is reported as inconclusive: 29.1 µM [activator, single point].
In the case of `Cc1ccc(Nc2nc(N)nc(CSc3nncn3C)n2)cc1`, the Potency is reported as inconclusive: 23.1 µM [activator, single point].
With `COc1cc(C2NC(=O)NC(C)=C2C(=O)OC2CCCC(C)C2)cc(Br)c1O` (configuration not stated) the Potency was inconclusive: 0.0046 µM [falling, full curve, poor fit].
In the case of `COc1ccc(C(=O)/C=C/c2ccc(N(C)C)cc2)c(OC)c1`, the Potency is reported as inconclusive: 29.1 µM [falling, single point].
For `O=C(Cc1c[nH]c2ccccc12)NCc1ccc(Cl)cc1Cl`, the Potency was inconclusive: 1.16 µM [activator, partial curve, poor fit].
In the case of `CCOC(=O)c1cccc(NC(=O)CSc2ncc3c(n2)-c2ccccc2N(C)S3(=O)=O)c1`, the Potency is reported as inconclusive: 20.6 µM [activator, single point].
In the case of `CC(C)(C)NC(=O)c1cccc2c1-c1ccccc1C2=O`, the “activity change, negative = inhibition” value is reported as inactive: 0.701%.
For `Cc1ccc(-c2cc(C3C4C=CCC(C)C4C(=O)N3Cc3ccccc3)ccc2F)cc1` (configuration not stated), the Potency was inconclusive: 20.6 µM [falling, single point].
For `O=c1cc(-c2ccccc2)[nH]n1-c1ccccc1`, the Potency was inconclusive: 16.4 µM [falling, single point].
In the case of `Cc1cccc(OCC(=O)Nc2ccc(S(=O)(=O)Nc3cc(C)nc(C)n3)cc2)c1`, the Potency is reported as inconclusive: 0.0517 µM [falling, full curve, poor fit].
With `C=CCc1c(C)nc2cc(-c3ccc(C)cc3)[nH]n2c1=O` the Potency was inconclusive: 3.66 µM [activator, full curve].
With `O=C(NCc1ccc2c(c1)OCO2)c1ccc(COc2cccc(Cl)c2)o1` the Potency was inconclusive: 23.1 µM [falling, single point].
For `CCOc1ccc(N(CC(=O)Nc2cccc(Br)c2)S(C)(=O)=O)cc1`, the Potency was inconclusive: 29.1 µM [falling, single point].
In the case of `Clc1ccc2nc(-c3ccc(Br)s3)cn2c1`, the Potency is reported as inconclusive: 0.651 µM [activator, full curve].
In the case of `CCCOC(=O)c1ccc(NC(=O)c2cc(OC)c(OC)c(OC)c2Br)cc1`, the Potency is reported as inconclusive: 0.146 µM [falling, full curve, poor fit].
For `Cc1ccc(C)c(OCc2cc(C(=O)N3CCN(c4ccccc4C)CC3C)no2)c1` (configuration not stated), the Potency was inconclusive: 16.4 µM [activator, single point].
In the case of `Cc1cccc(C)c1OCC(=O)Nc1ccncc1`, the Potency is reported as inconclusive: 18.4 µM [falling, single point].
With `COc1ccc(Cl)cc1NC(=O)CCc1nc(-c2ccccc2F)no1` the Potency was inconclusive: 20.6 µM [falling, single point].
In the case of `Cc1ccc(SCc2cn3c(C)csc3n2)cc1`, the Potency is reported as inconclusive: 0.82 µM [activator, partial curve, poor fit].
In the case of `O=C(NN1C(=O)NC2(CCCCC2)C1=O)c1cc2cc(Cl)ccc2o1`, the “activity change, negative = inhibition” value is reported as inactive: -5.63%.
In the case of `O=C1[C@@H]2C(c3cccnc3)=NO[C@@H]2C(=O)N1c1ccc2ccccc2c1`, the “activity change, negative = inhibition” value is reported as inactive: 7.33%.
For `O=C(CN1CCN(S(=O)(=O)c2ccc(F)cc2)CC1)Nc1ccc(F)cc1F`, the “activity change, negative = inhibition” value was inactive: 1.67%.
For `Cc1ccccc1Cn1c(O)c(N=NC(=S)Nc2ccccc2F)c2ccccc21`, the Potency was inconclusive: 6.51 µM [falling, full curve].
In the case of `O=C(Cn1c(=O)n(Cc2ccc3c(c2)OCO3)c(=O)c2ccccc21)Nc1cccc(Cl)c1`, the “activity change, negative = inhibition” value is reported as inactive: 9.23%.
With `Cc1c(C(=O)N2CCCC2)oc2c1-c1nn(CC(=O)NCc3cccc(Br)c3)cc1CC2` the Potency was inconclusive: 29.1 µM [falling, single point].
For `Cc1ccc(NC(=O)CCOc2ccccc2)c(C)c1`, the Potency was inconclusive: 0.103 µM [falling, full curve, poor fit].
In the case of `CCn1c2ccccc2c2cc(NC(=O)c3cc(OC)c(OC)c(OC)c3)ccc21`, the “activity change, negative = inhibition” value is reported as inactive: -6.89%.
For `O=C(C1CCC(CNS(=O)(=O)c2ccc(Br)s2)CC1)N1CCN(c2ccccc2)CC1` (configuration not stated), the Potency was inconclusive: 6.51 µM [falling, full curve].
With `O=C1CSC(c2ccc([N+](=O)[O-])cc2)N1c1ccccc1` (configuration not stated) the Potency was inconclusive: 0.731 µM [falling, partial curve, poor fit].
In the case of `Clc1cccc(CNc2ncnc3c2nc2n3CCCC2)c1`, the “activity change, negative = inhibition” value is reported as inactive: -27.6%.
For `Cc1ccc(C(=O)C[n+]2cccc(C(N)=O)c2)cc1`, the Potency was inconclusive: 2.31 µM [activator, full curve, poor fit].
With `CCOC(=O)CNc1c(-c2ccc(O)cc2)nc2ccc(Cl)cn12` the “activity change, negative = inhibition” value was inactive: 1.66%.
In the case of `COc1ccc(C(=O)N2CCCC(c3nc(-c4cc(OC)c(OC)c(OC)c4)no3)C2)cc1` (configuration not stated), the “activity change, negative = inhibition” value is reported as inactive: -16.8%.
With `Cc1ccc(S(=O)(=O)N(C)C)cc1NC(=O)CSc1nnc(C2CC2)n1C1CC1` the Potency was inconclusive: 16.4 µM [falling, partial curve, poor fit].
In the case of `O=C(CCl)Nc1cccn2ncnc12`, the Potency is reported as inconclusive: 20.6 µM [falling, single point].
With `COc1ccc(-n2nc(C(=O)NCC(=O)Nc3cc(C)ccc3OC)c3ccccc3c2=O)c(OC)c1` the Potency was inconclusive: 29.1 µM [falling, single point].
For `Cc1ccc(-c2noc(COc3ccc(Br)c(C)c3)n2)cc1`, the Potency was inconclusive: 0.731 µM [activator, full curve, poor fit].
For `CCOC(=O)Cc1csc(NC(=O)c2ccncc2)n1`, the Potency was inconclusive: 20.6 µM [falling, single point].
With `Cc1ccc(CN=C(N)Nc2nc(C)cc(C)n2)cc1` the “activity change, negative = inhibition” value was inactive: 8.37%.
With `CCCN(CCC)S(=O)(=O)c1cc2c(cc1Br)CCN2C(=O)CC` the Potency was inconclusive: 29.1 µM [falling, single point].
For `Nc1nnc(SCC(=O)Nc2ccc3c(c2)OCCO3)s1`, the Potency was inconclusive: 29.1 µM [activator, single point].
With `COc1cccc2c1C(=O)c1c(O)c3c(c(O)c1C2=O)CC(O)(C(=O)CO)CC3OC1CC(N(C)C)C(O)C(C)O1` (configuration not stated) the Potency was active: 0.461 µM.
In the case of `CC(=O)Nc1ccc2c(c1Br)Cc1ccccc1-2`, the Potency is reported as inconclusive: 10.3 µM [activator, partial curve].
For `O=C(NC1CCCC1)c1c[nH]c2ccc(S(=O)(=O)Nc3cccc(C(F)(F)F)c3)cc2c1=O`, the Potency was inconclusive: 23.1 µM [falling, single point].
In the case of `C/C(=N\O)c1ccc2c(c1)CC(C)O2` (configuration not stated), the Potency is reported as inconclusive: 29.1 µM [activator, single point].
With `CCOC(=O)c1c(C)oc2nc(C)nc(NCC3CCN(Cc4ccc(Cl)cc4)CC3)c12` the “activity change, negative = inhibition” value was inactive: 22.6%.
For `CC1Sc2ccc(S(=O)(=O)N3CCN(c4ccccc4)CC3)cc2NC1=O` (configuration not stated), the Potency was active: 7.31 µM.
In the case of `CCN(c1ccccc1)S(=O)(=O)c1nnc(NC(=O)COc2ccc(OC)cc2)s1`, the Potency is reported as inconclusive: 4.61 µM [activator, partial curve].
In the case of `Cc1cc(-c2csc(NC(=O)c3ccc(S(=O)(=O)N(C)C)cc3)n2)c(C)n1-c1ccccc1`, the Potency is reported as inconclusive: 20.6 µM [falling, single point].
